US12227536B2, “Crystalline forms of an NRTTI compound” (Merck Sharp & Dohme LLC, priority 2018, dated 2025)
At least one structure is not confirmed: it was looked up by name or label, or the drawing left a doubt.

How the values were obtained:
Type in all cases: physicochemical
[1] = Competitive slurry experiments of Forms 1 and 4 in various solvent systems, by PXRD; settings: various solvents, extended period, controlled temperature
[2] = Crystal form stability in hot melt extrusion (HME) of EFdA/EVA implant product, by XRD
Method: Anhydrate crystalline Forms 1, 2, and 4 of EFdA were isolated by hot melt extrusion (HME) processing. Micronized ethylene vinyl acetate (EVA) polymer and monohydrate crystalline Form MH of EFdA were blended with a Turbula T2F mixer at various ratios: 30, 35, 40, 45 and 50 wt % drug. The pre-blend was hot melt extruded with an 18 mm Leistritz twin screw extruder with a 25:1 L/D, throughput of 400 g/hr, temperatures ranging from 100-140° C., feed zone at 40° C., and screw speed at 30 rpm. Two screw configurations were used, both predominately consisting of conveying elements with different mixing sections. The less aggressive screw design contained a mixing section consisting of conveying, kneading elements each 15 mm in length, with twisting angles of 30°, 60°, and 60° (“HME low shear Process A”). The more aggressive screw design included additional mixing segments after the mixing section used in the less aggressive design: conveying, kneading elements each 15 mm in length, with a twisting angle of 90° (“HME high shear Process B”). For both extrusion set-ups, the strands were then air-cooled and pelletized to form micropellets. The pellets were then extruded with a ½″ American Kuhne single screw extruder with temperatures ranging from 110-140° C., feed zone at 25° C., and screw speed at 20-25 rpm to form a 2±0.05 mm diameter filament, and then cut to a length of 40±2 mm. […]

BCS classification = assay: BCS classification

Row | Compound | Resultant form after competitive slurry of Forms 1 and 4 [1] | Crystal form after HME processing ([2]; EFdA/EVA product containing BaSO4, HME low shear Process A) | BCS category (BCS classification) | Crystal form after HME processing ([2]; EFdA/EVA product, HME low shear Process A)
1 | C#C[C@]1(CO)O[C@@H](n2cnc3c(N)nc(F)nc32)C[C@@H]1O [Form 4, 4′-Ethynyl-2-fluoro-2′-deoxyadenosine] | the only form remaining | maintained throughout the HME process | BCS Class I | –
2 | C#C[C@]1(CO)O[C@@H](n2cnc3c(N)nc(F)nc32)C[C@@H]1O [Form 1, 4′-Ethynyl-2-fluoro-2′-deoxyadenosine] | – | – | BCS Class I | maintained throughout the HME process
